Assay results: PMC7617749
No constants are given. Whether binding was seen depends on the method and setting. Binding seen in cells or lysates may run through a third protein. Some results given as binding are weak or reduced against the parent protein; the word gives no strength.

Amino acid sequences for entries named in this document (tags omitted). A change or cut given only in a name is not applied to a line headed by its entry.
UniProt P16520: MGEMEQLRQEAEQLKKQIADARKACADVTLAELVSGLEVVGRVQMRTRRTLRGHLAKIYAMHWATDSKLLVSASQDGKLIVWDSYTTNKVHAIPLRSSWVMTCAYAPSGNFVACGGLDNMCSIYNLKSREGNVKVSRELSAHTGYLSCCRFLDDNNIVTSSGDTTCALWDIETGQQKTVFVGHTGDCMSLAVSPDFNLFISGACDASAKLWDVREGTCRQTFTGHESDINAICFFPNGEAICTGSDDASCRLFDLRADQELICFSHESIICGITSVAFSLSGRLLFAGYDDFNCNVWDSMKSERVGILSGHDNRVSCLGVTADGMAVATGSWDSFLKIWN
UniProt P63092: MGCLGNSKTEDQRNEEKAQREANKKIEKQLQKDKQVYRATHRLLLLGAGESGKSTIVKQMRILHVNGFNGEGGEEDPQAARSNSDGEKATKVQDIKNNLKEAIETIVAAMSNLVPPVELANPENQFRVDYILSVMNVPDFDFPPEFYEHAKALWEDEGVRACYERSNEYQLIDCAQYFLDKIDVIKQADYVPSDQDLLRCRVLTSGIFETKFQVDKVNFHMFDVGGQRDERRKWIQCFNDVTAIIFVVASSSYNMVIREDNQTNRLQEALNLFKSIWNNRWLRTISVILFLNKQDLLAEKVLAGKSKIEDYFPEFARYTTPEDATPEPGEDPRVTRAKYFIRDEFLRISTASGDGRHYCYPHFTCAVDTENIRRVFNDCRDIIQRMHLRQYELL

Target: Gβγ (Gβ3 and Gγ9-GFP2 of the TRUPATH biosensor kit) (UniProt P16520)
Assay: FRET or BRET; TRUPATH G protein activation assay: HEK293T cells co-transfected with receptor (PTH1R; also ADRB2), Gαs-RLuc8 WT/E392K/L388R, Gβ3 and Gγ9-GFP2; loss of BRET between Gαs and Gβγ after 1 µM PTH(1-34) (10 µM isoprenaline for ADRB2); HBSS with 20 mM HEPES, 0.1% BSA, pH 7.4, coelenterazine 400a 5 µM; read every 60 s for 15 min; baseline-corrected with DMSO

GαsE392K-Rluc8 (from UniProt P63092 1-394)
binding: binds

Gαs-Rluc8 (wild type) (from UniProt P63092 1-394)
binding: binds
